In test [1] the target is T1, Venus-tagged mutant HURP (last 12 amino acids deleted) (human) (UniProt Q15398).
T1 sequence: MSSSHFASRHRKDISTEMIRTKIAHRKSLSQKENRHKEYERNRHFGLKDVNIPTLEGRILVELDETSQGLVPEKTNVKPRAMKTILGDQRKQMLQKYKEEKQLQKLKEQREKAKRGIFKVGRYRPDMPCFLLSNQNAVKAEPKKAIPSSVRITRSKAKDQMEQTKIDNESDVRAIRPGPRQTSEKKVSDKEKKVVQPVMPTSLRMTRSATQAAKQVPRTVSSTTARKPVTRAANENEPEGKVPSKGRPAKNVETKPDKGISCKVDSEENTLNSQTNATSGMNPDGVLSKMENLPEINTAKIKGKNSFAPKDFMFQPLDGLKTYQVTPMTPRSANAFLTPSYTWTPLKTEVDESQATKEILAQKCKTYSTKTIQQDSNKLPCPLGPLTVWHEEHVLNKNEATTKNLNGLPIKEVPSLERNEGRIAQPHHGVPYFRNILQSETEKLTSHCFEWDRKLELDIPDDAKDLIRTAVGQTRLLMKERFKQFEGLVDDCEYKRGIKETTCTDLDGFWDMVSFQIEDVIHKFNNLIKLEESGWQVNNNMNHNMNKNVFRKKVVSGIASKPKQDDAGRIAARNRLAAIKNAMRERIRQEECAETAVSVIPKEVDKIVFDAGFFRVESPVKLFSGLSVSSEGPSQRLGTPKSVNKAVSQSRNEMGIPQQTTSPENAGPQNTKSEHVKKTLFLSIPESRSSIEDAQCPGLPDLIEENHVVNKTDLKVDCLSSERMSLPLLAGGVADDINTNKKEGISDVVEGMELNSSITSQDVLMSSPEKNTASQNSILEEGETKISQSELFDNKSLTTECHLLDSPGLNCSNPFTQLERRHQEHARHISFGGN
Briefly: co-IP.

Sequences of proteins named here, by UniProt entry; tags and fusion partners are left off.
UniProt Q00610: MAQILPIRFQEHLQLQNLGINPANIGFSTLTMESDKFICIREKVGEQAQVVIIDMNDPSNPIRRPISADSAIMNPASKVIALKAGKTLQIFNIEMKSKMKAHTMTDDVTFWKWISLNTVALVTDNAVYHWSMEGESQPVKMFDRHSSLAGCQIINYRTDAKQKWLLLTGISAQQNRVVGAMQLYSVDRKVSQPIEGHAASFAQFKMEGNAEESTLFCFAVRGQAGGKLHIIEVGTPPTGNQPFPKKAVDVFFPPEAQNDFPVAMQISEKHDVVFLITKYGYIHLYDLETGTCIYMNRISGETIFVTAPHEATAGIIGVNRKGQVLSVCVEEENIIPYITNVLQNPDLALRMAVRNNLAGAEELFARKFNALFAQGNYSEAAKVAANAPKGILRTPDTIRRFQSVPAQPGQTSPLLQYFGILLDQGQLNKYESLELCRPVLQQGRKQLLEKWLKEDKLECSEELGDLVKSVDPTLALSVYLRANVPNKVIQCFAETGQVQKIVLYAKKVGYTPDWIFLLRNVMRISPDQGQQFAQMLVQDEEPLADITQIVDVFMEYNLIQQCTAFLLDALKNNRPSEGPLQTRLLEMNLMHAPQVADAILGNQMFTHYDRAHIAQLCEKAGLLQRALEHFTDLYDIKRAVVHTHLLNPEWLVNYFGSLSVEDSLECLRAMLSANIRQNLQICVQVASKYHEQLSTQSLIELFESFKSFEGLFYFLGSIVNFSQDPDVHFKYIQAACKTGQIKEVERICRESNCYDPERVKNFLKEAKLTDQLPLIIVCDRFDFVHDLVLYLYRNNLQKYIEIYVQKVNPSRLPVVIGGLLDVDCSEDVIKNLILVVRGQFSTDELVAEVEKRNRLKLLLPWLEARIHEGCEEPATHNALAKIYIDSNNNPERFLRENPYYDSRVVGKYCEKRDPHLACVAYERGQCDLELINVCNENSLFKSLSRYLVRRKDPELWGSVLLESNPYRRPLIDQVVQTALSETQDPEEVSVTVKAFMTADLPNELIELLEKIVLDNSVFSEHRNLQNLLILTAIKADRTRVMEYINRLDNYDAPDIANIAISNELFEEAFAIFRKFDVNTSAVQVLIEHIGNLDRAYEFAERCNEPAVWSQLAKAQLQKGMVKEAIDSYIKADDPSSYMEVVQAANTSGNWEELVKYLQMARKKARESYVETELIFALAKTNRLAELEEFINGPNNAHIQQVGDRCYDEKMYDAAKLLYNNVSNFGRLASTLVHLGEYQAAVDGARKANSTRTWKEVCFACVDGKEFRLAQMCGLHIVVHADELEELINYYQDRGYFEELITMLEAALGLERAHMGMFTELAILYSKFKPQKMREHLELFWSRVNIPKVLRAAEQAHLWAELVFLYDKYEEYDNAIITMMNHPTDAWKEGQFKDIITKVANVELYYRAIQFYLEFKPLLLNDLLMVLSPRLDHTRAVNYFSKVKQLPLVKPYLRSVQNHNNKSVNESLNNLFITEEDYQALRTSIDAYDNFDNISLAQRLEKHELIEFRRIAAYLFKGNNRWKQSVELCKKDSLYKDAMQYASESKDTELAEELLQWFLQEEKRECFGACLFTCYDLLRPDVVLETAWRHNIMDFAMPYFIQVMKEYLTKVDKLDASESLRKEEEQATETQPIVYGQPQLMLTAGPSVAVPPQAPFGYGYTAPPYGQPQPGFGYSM

Test [2] has as its target T2, Venus-tagged wild-type HURP (human) (UniProt Q15398).
T2 sequence: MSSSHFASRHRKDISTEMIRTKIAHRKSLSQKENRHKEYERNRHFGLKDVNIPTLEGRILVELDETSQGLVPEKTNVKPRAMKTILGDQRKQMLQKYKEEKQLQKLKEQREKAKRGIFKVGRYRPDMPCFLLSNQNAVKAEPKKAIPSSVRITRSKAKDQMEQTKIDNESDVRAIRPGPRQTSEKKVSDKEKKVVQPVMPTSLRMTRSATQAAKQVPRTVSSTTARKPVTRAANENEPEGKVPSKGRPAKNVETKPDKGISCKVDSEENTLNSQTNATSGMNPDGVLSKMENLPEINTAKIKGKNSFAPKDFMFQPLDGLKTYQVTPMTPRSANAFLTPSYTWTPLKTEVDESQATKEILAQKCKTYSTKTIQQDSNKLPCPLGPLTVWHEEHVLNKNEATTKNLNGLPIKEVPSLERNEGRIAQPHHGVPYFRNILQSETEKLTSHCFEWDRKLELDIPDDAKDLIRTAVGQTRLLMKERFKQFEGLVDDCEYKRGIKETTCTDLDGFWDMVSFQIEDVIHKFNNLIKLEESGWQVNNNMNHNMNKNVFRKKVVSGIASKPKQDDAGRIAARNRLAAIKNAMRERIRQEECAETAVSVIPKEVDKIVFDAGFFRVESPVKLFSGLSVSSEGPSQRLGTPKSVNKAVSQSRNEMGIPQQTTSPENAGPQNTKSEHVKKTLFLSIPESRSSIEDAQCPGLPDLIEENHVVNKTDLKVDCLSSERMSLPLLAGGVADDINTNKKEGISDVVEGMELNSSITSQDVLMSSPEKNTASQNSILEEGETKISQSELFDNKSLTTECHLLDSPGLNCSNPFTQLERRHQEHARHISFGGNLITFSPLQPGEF
The test is described as follows: co-IP.

These are yes or no findings as the source states them, for the method shown. Binding seen in cells or lysates may run through a third protein. Some results given as binding are weak or reduced against the parent protein; the word gives no strength. Tags and fused reporters may be left off the sequences shown.

Regarding “clathrin (endogenous, detected with anti-CHC) (from UniProt Q00610 1-1675)”, the binding entry in test [1] is given as “no binding”; in test [2], “binds”.

The record behind these values is publication doi:10.1101/2022.06.08.495335.
